Reference: PubChem BioAssay AID1487 (National Center for Advancing Translational Sciences (NCATS), 2009)
The other results are listed elsewhere or left out. Shown are side measurements of this screen, not its main read-out; they come without a call. Most of these compounds were active or inconclusive in the main read-out, so they are no random draw. Potencies come from curve fits of mixed quality, noted in brackets.

Test: qHTS Assay for Modulators of Lamin A Splicing
Conditions: HeLa LMNA splicing GFP/RFP minigene ratio, 48 h
Outline: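 Read-out is the ratio of GFP to DsRed2 object intensity, acquired by 488 nm laser-scanning cytometry on HeLa lamin A-EGFP minigene reporter cells. Compound incubation 48 hrs at 37 °C in Opti-MEM with 2% FBS; DMSO 0.5% final.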

[1] = measured here: RFP viability control channel
[2] = measured here: GFP splicing reporter channel

Row | SMILES | AC50 [1] | AC50 [2]
1 | CCCNS(=O)(=O)c1ccc(CCC(=O)N2CCN(c3ccc(OC)cc3)CC2)cc1 | 14.1 µM [rising, single point] | 
2 | CN(C)CCN1CCc2ccccc21 | 15.8 µM [rising, partial curve] | 11.2 µM [rising, partial curve]
3 | Cc1cc(SCc2ccccc2)nc(=O)[nH]1 | 2 µM [falling, full curve, poor fit] | 
4 | Cc1ccc(CNC(=O)C2CCN(c3nc4ccc(C)cc4[nH]3)CC2)cc1 | 6.31 µM [falling, single point] | 
5 | COc1cccc(-c2cncnc2NCCc2cnc[nH]2)c1 | 0.316 µM [falling, full curve, poor fit] | 
6 | O=C(N/N=C/c1cn(-c2ccccc2)nc1-c1cccs1)c1ccc(Cl)cc1 | 15.8 µM [rising, partial curve] | 10 µM [rising, partial curve]
7 | CC(C)(CC(=O)O)CC(=O)NCc1c(Cl)cccc1Sc1ccc(Cl)cc1 | 35.5 µM [falling, partial curve, poor fit] | 
8 | COc1cccc(C(=O)NC(c2ccc(Cl)cc2)c2cc(Cl)c3cccnc3c2O)c1 (stereo not drawn) | 31.6 µM [falling, single point] | 35.5 µM [falling, single point]
9 | Cc1oc2ccc(O)cc2c1C(=O)c1ccc(Cl)cc1 | 31.6 µM [rising, single point] | 35.5 µM [rising, single point]
10 | O=C(COc1ccc(F)cc1)Nc1cccc(OCc2cc(=O)n3ccccc3n2)c1 | 11.2 µM [falling, partial curve] | 
11 | O=C(Nc1cccs1)OCCN1CCN(Cc2ccccc2)CCC1=O | 20 µM [rising, partial curve, poor fit] | 
12 | O=C(Oc1cccc(C(=S)N2CCCCC2)c1)c1ccccc1 |  | 15.8 µM [rising, partial curve, poor fit]
13 | Cc1nnc(SCc2nc3sc4c(c3c(=O)[nH]2)CCCC4)n(N)c1=O | 0.0794 µM [falling, full curve, poor fit] | 
14 | O=C(c1ccc(Br)o1)N1CCc2ccccc21 | 35.5 µM [falling, partial curve] | 12.6 µM [falling, partial curve]
15 | Cc1cc(C=O)c(C)n1-c1ccc(Oc2ccc([N+](=O)[O-])cn2)cc1 | 2.82 µM [falling, full curve] | 5.01 µM [falling, partial curve]
16 | CCCCNC(=S)NNC(=O)CCn1nc(C)c(Br)c1C | 22.4 µM [falling, single point] | 35.5 µM [falling, single point]
17 | CC(=O)c1c(C)[nH]c(C(=O)N2CCN(c3ccc(F)cc3)CC2)c1C | 12.6 µM [rising, single point] | 12.6 µM [rising, partial curve, poor fit]
18 | Cc1ccc(Cl)cc1NC(=O)Cn1c(=O)oc2cc(S(=O)(=O)N3CCCCCC3)ccc21 |  | 25.1 µM [falling, single point]
19 | O=C(NC(=S)Nc1nc2ccccc2s1)c1ccco1 | 0.158 µM [falling, full curve, poor fit] | 0.2 µM [falling, full curve, poor fit]
20 | NS(=O)(=O)c1ccc(N2N=C(c3ccccc3)CC2c2ccc(F)cc2)cc1 (stereo not drawn) | 35.5 µM [falling, single point] | 35.5 µM [falling, single point]
21 | Cc1ccc(NC(=O)c2ccc(=O)n(CC(=O)Nc3cc(C)cc(C)c3)n2)cc1 | 10 µM [falling, partial curve] | 
22 | O=C(N=Nc1ccc(NOC(=O)c2ccccc2Br)cc1)c1ccccc1O | 1.26 µM [rising, full curve] | 2 µM [rising, partial curve, poor fit]
23 | Cc1ccc(CSc2nc3c(c(N(C)C)n2)CCCC3)cc1 | 11.2 µM [rising, partial curve, poor fit] | 
24 | Cc1cc(NC(=O)CSc2cn(CCNC(=O)c3ccc(F)cc3)c3ccccc23)no1 | 14.1 µM [rising, partial curve] | 10 µM [rising, partial curve, poor fit]
25 | COCCN=c1scc(-c2cccs2)n1/N=C/c1ccc(O)c(O)c1O | 35.5 µM [falling, single point] | 35.5 µM [falling, single point]
26 | CCN(C(=O)c1cc(S(=O)(=O)N2CCOCC2)cn1C)c1ccc(OC)cc1 | 25.1 µM [falling, partial curve] | 
27 | COc1ccc(/C=C/c2nc3ccccc3n2Cc2ccc(OC)c(OC)c2)cc1 | 31.6 µM [rising, single point] | 20 µM [rising, single point]

Arranged by formula weight (ascending): some entries from above.
Row | SMILES | AC50 [1] | AC50 [2]
2 | CN(C)CCN1CCc2ccccc21 | 15.8 µM [rising, partial curve] | 11.2 µM [rising, partial curve]
7 | CC(C)(CC(=O)O)CC(=O)NCc1c(Cl)cccc1Sc1ccc(Cl)cc1 | 35.5 µM [falling, partial curve, poor fit] | 
8 | COc1cccc(C(=O)NC(c2ccc(Cl)cc2)c2cc(Cl)c3cccnc3c2O)c1 (stereo not drawn) | 31.6 µM [falling, single point] | 35.5 µM [falling, single point]

Continuation:

Row | SMILES | AC50 [1] | AC50 [2]
28 | CC(O)C(=O)N/N=C/c1ccccc1C(=O)O (stereo not drawn) | 25.1 µM [rising, partial curve] | 28.2 µM [rising, partial curve, poor fit]
29 | COc1ccc(OC)c(C2C(C(N)=O)=C(C)Nc3nc(-c4cccc(Cl)c4)nn32)c1 (stereo not drawn) | 11.2 µM [rising, single point] | 
30 | Cc1ccc(NC(=O)c2ccc([N+](=O)[O-])o2)c(C)c1 | 22.4 µM [falling, partial curve] | 12.6 µM [falling, single point]
31 | COc1ccc(CC2(CO)CCN(C/C=C/c3ccccc3OC)CC2)cc1 | 3.55 µM [falling, single point] | 
32 | Cc1csc(N(C)C(=O)CSc2nnc(COc3cccc4ccccc34)o2)n1 | 2.51 µM [rising, full curve] | 
33 | Cc1ccc(-n2c(N)c(Br)c(=O)[nH]c2=O)cc1C | 0.01 µM [rising, full curve, poor fit] | 
34 | O=C(Nc1ccc(N2CCCCCC2)cc1)c1ccccc1Cl | 4.47 µM [rising, partial curve, poor fit] | 
35 | Cc1cc(=O)c2ccccc2n1CC(=O)NCc1ccccc1 | 22.4 µM [rising, partial curve] | 15.8 µM [rising, partial curve, poor fit]
36 | COc1ccc(Nc2oc(-c3ccc(COc4ccc(OC)cc4)o3)nc2C#N)cc1 | 0.00562 µM [falling, full curve, poor fit] | 0.355 µM [falling, full curve, poor fit]
37 | c1ccc(Nc2cc(-c3ccoc3)ncn2)cc1 |  | 12.6 µM [falling, partial curve]
38 | O=C(CSc1nc2ccccc2c(=O)n1Cc1ccco1)N1CCCCCC1 | 20 µM [rising, single point] | 31.6 µM [rising, single point]
39 | COc1ccc(N2CCN(C(c3cccs3)C(C)NC(=O)c3ccco3)CC2)cc1 (stereo not drawn) | 17.8 µM [rising, partial curve, poor fit] | 
40 | Cc1cccc(C)c1OCC(=O)N/N=C/C=C/c1ccco1 | 35.5 µM [falling, single point] | 
41 | Cc1cc(SCC(=O)c2cccs2)n2nc(C)c(-c3ccccc3)c2n1 | 35.5 µM [rising, single point] | 
42 | Cc1ccc(S(=O)(=O)N2CC=C(c3ccc(F)cc3)CC2)cc1 | 35.5 µM [rising, single point] | 
43 | CC(C[N+](C)(C)C)OC(N)=O (stereo not drawn) | 5.62 µM [rising, single point] | 
44 | CNc1nc2c(c(=O)n(C)c(=O)n2C)n1Cc1ccccc1 | 8.91 µM [rising, partial curve] | 
45 | Cc1cccc2c1CC(C)(C)N/C2=C\C(N)=O | 6.31 µM [rising, full curve, poor fit] | 6.31 µM [rising, full curve, poor fit]
46 | CCc1cccc2c(C(=O)COC(=O)c3ccc(O)cc3)c[nH]c12 | 35.5 µM [rising, single point] | 
47 | Cc1ccc(-n2c(C)cc(C(=O)COc3cccnc3[N+](=O)[O-])c2C)cc1 | 11.2 µM [rising, partial curve] | 10 µM [rising, partial curve, poor fit]
48 | C=C[C@](C)(O)CCC1C(=C)CC(OC(C)=O)C2C(C)(C)CCCC12C (stereo partly drawn) | 35.5 µM [falling, single point] | 22.4 µM [falling, partial curve, poor fit]
49 | COCCN(Cc1nc(C2(c3ccc(C)cc3)CCCC2)no1)C(C)C | 5.62 µM [falling, full curve] | 
50 | CC(=O)c1cccc(N(CC(=O)Nc2ccc(F)cc2)S(C)(=O)=O)c1 |  | 11.2 µM [rising, partial curve, poor fit]
51 | CCN(CC)CCNS(=O)(=O)c1ccc(/C=C/C(=O)O)cc1 |  | 17.8 µM [falling, partial curve, poor fit]
52 | COc1ccc(-c2nnc3sc(COc4ccc(C)cc4)nn23)cc1 | 7.94 µM [rising, partial curve] | 7.08 µM [rising, partial curve, poor fit]
53 | Cc1ccc(C)c(NC(=O)COC(=O)CC2c3ccccc3CCN2S(=O)(=O)c2ccc(F)cc2)c1 (stereo not drawn) |  | 0.00891 µM [rising, full curve, poor fit]
54 | Cc1ccc(/C=N\NC(=O)c2ccc(Cn3cc(Br)c([N+](=O)[O-])n3)o2)o1 | 25.1 µM [falling, single point] | 0.2 µM [falling, full curve, poor fit]
